The text below walks through data of publication PMC3871008.

Protein sequences, listed by entry. Tags and fused reporters are not part of them.
UniProt Q13950: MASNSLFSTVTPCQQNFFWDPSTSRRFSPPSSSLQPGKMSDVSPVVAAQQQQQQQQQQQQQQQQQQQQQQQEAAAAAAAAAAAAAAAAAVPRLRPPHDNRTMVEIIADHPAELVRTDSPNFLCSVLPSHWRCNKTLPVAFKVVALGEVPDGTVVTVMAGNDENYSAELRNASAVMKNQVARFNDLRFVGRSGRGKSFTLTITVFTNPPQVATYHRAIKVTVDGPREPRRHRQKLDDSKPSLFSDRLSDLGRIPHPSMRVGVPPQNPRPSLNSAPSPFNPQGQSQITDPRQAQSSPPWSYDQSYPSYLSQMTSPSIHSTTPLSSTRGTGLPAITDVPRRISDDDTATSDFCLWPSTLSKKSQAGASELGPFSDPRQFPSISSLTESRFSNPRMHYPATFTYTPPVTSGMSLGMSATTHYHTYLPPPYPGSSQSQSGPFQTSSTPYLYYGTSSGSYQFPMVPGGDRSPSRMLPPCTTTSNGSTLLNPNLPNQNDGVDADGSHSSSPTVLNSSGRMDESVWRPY
UniProt P84022: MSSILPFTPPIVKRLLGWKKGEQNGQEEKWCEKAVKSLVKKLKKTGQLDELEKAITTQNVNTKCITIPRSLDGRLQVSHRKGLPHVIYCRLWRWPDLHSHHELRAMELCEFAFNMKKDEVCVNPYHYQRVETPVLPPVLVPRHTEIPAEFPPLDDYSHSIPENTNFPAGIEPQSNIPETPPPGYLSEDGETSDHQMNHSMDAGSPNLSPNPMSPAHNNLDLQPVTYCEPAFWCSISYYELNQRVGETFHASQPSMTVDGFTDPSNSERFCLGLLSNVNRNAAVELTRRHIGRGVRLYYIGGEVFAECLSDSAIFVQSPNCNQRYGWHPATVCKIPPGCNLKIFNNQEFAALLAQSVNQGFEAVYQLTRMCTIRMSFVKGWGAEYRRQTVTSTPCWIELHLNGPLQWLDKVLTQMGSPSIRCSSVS

Holding throughout (assay): co-IP; endogenous proteins from MCF10 whole cell lysates; immunoprecipitated with anti-WWOX, anti-SMAD3, anti-RUNX2 or rabbit IgG on Protein A/G beads; lysis and wash buffer with Tris-HCl pH 7.4, 100 mM NaF, 10 mM EDTA, 1% NP-40, 0.5% TritonX-100; blotted with anti-WWOX and anti-SMAD3
Test [1] has as its target T1, WW domain-containing oxidoreductase (WWOX), endogenous (human (endogenous in MCF10)) (UniProt Q9NZC7).
T1 sequence: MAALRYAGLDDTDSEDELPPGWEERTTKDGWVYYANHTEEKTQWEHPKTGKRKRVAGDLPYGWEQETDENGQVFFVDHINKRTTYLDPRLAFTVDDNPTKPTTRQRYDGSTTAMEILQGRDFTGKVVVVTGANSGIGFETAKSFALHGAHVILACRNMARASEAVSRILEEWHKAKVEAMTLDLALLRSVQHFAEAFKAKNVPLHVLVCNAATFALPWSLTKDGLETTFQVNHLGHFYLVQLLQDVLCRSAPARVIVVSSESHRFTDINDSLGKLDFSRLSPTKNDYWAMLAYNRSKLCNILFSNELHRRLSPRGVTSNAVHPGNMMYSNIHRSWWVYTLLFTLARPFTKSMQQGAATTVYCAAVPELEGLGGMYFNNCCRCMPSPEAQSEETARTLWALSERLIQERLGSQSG

Test [2] deals with RUNX2, endogenous (human (endogenous in MCF10)) (UniProt Q13950).
Test [3] has the same target. This is another data set of the same source.

Read-outs that look alike come from different tables or passages of the source. These are yes or no findings as the source states them, for the method shown. In cells and extracts the contact can be indirect. Some results given as binding are weak or reduced against the parent protein; the word gives no strength.

Take “SMAD3, endogenous (from UniProt P84022 1-425)”: the binding entry in test [1] and in test [2] was “binds” each time.

B1: WW domain-containing oxidoreductase (WWOX), endogenous (protein, UniProt Q9NZC7 1-414)
chain: T1 sequence
As for B1, in test [3], the binding result was “binds”.
